Measured values taken from EPA's CvTdb concentration-time database.

Legend:
Test in all cases: concentration in plasma after dosing
[1] = tested on: Rat; details: dosed: Benzophenone, oral, F344
[2] = tested on: Mouse; details: 10 min; dosed: Benzophenone; 15 mg/kg; iv; Female; B6C3F1
[3] = tested on: Mouse; details: 1 h; dosed: Benzophenone; 15 mg/kg; oral; Male; B6C3F1
[4] = tested on: Mouse; details: 3 h; dosed: Benzophenone; 60 mg/kg; oral; Male; B6C3F1
[5] = tested on: Mouse; details: 1 h; dosed: Benzophenone; 60 mg/kg; oral; Female; B6C3F1
[6] = tested on: Mouse; details: 10 min; dosed: Benzophenone; 15 mg/kg; iv; Male; B6C3F1
[7] = tested on: Mouse; details: 2 h; dosed: Benzophenone; 30 mg/kg; oral; Female; B6C3F1
[8] = tested on: Mouse; details: 6 h; dosed: Benzophenone; 30 mg/kg; oral; Female; B6C3F1
[9] = tested on: Mouse; details: 2 h; dosed: Benzophenone; 30 mg/kg; oral; Female; B6C3F1; remark: listed apart in the source
[10] = tested on: Rat; details: dosed: Benzophenone, 5 mg/kg, oral, Female, F344
[11] = tested on: Rat; details: dosed: Benzophenone, 5 mg/kg, oral, Male, F344
[12] = tested on: Rat; details: 16 h; dosed: Benzophenone; 5 mg/kg; oral; Female; F344
[13] = tested on: Mouse; details: 0.125 h; dosed: Benzophenone; 60 mg/kg; oral; Female; B6C3F1
[14] = tested on: Mouse; details: 1 h; dosed: Benzophenone; 60 mg/kg; oral; Male; B6C3F1
[15] = tested on: Mouse; details: 10 min; dosed: Benzophenone; 30 mg/kg; oral; Female; B6C3F1
[16] = tested on: Mouse; details: 2 h; dosed: Benzophenone; 60 mg/kg; oral; Male; B6C3F1
[17] = tested on: Mouse; details: 20 min; dosed: Benzophenone; 15 mg/kg; iv; Male; B6C3F1

O=C(c1ccccc1)c1ccccc1 [Benzophenone]
concentration in plasma [ng/mL], [1]
Details	5 mg/kg	10 mg/kg
0.125 h, Female	195	470
0.125 h, Male	166	327
0.25 h, Female	236	375
0.25 h, Male	296	305
0.5 h, Female	269	543
0.5 h, Male	144	383
1 h, Female	145	180
1 h, Male	128	281
2 h, Female	106	290
2 h, Male	48.5	257
2.5 min, Female	52.2	34.4
2.5 min, Male	49.7	38.2
3 h, Female	82.8	163
3 h, Male	89.7	222
5 min, Female	145	257
5 min, Male	71.8	363
6 h, Female	68.1	111
6 h, Male	73.1	145
10 h, Female	69.4	94
10 h, Male	75.9	105
10 min, Female	134	296
10 min, Male	180	458
16 h, Female	18.1	30
16 h, Male	25.9	72.2
24 h, Female	11.8	37.9
24 h, Male	25.3	48.5

Details	concentration in plasma [ng/mL]
[2]	3710
[3]	170
[4]	228
[5]	708
[6]	4010
[7]	198
[8]	21.6
[9]	146
[12]	17.6
[13]	1580
[14]	730
[15]	604
[16]	408
[17]	1830

concentration in plasma [ng/mL]
Details	0.25 h	2 h	5 min	24 h
[10]	281	–	–	16.2
[11]	–	120	101	–
